Measured values as given in PubChem BioAssay AID445 (National Center for Advancing Translational Sciences (NCATS), 2006).
This is one part of the list. The main result of the screen is listed elsewhere. These columns were measured beside it and carry no call. Most of these compounds were active or inconclusive in the main read-out, so they are no random draw. The note in brackets gives the kind of curve behind each potency; many fits are weak.

Assay: IkB Signaling
Conditions: ABC-DLBCL IkBa-CBG/CBR dual luciferase ratio (green luciferase fused to IkBa over red control in OCI-Ly3 lymphoma cells), 4 h; measured here: control luc red channel unless noted
Method in brief: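 Luminescence ratio of IκBα-fused green versus native red beetle luciferase in OCI-Ly3 cells, 4 h post-doxycycline with compound; red signal alone, scaled from basal (0%) to zero light (-100%), flagged nonspecific or cytotoxic effects.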
In the case of COc1ccc(C2=C(C)C(=O)N(Cc3ccc(C(=O)Nc4ccc(F)cc4C)cc3)S2(=O)=O)cc1, the AC50 was 1.58 µM [rising, full curve].
With CCN(CC)CCn1c(=N)n(CCOc2ccccc2Cl)c2ccccc21 the AC50 was 31.6 µM [falling, single point].
For O=C(NCC(c1cccnc1)N1CCOCC1)C(=O)Nc1ccc(Cl)cc1 (configuration not stated), the AC50 was 31.6 µM [falling, single point].
With O=C(NCCC1=CCCCC1)C1CCN(C(=O)N2CCOc3ccccc32)CC1 the AC50 was 12.6 µM [falling, partial curve].
For Clc1ccccc1-c1nnc2sc(-c3cccs3)nn12, the AC50 was 7.94 µM [falling, partial curve].
In the case of CCOc1ccc(NC(=O)Cn2c(=O)cc(C)c3c(C)nn(C)c32)cc1, the AC50 was 39.8 µM [falling, single point].
For Cc1csc2nc(-c3cccc(NS(C)(=O)=O)c3)cn12, the AC50 was 25.1 µM [rising, partial curve, poor fit].
With Cc1cc(C(=O)CN2C(=O)c3ccccc3S2(=O)=O)c(C)n1-c1ccccc1 the AC50 was 39.8 µM [falling, single point].
With O=C(CCCSc1nc2ccccc2s1)Nc1nccs1 the AC50 was 20 µM [falling, partial curve].
With Cc1csc2nc(-c3ccc(NS(=O)(=O)c4cccc(F)c4)cc3)cn12 the AC50 was 31.6 µM [falling, single point].
In the case of Cc1c(CN(C)C(=O)c2cc(-c3ccccc3)nc3ccc(Br)cc23)cnn1C, the AC50 was 10 µM [falling, partial curve].
With CCCOc1ccc(C2=NC(c3ccncc3)=Nc3ccc(C)cc3N2)cc1 the AC50 was 25.1 µM [falling, single point].
For Cc1ccc(-c2n[nH]c3c2C(c2ccccc2Cl)N(c2ccc(C(=O)O)cc2)C3=O)cc1 (configuration not stated), the AC50 was 3.98 µM [falling, full curve].
For CSc1ncc(Cl)c(C(=O)Nc2c(C(=O)Nc3cccc(C)c3)oc3ccccc23)n1, the AC50 was 3.16 µM [rising, full curve].
In the case of O=C1C2C3C=CC(C3)C2C(=O)N1CNc1ccc(O)cc1 (configuration not stated), the AC50 was 31.6 µM [rising, single point] [measured here: IkB-luc green channel].
With O=C(CSc1nc2c(c(=O)[nH]1)CCCC2)Nc1ccccc1C(F)(F)F the AC50 was 1 µM [rising, full curve].
For CC(C)c1ccc(S(=O)(=O)c2cn(CC(=O)Nc3ccc(F)cc3)c3ccccc3c2=O)cc1, the AC50 was 5.01 µM [falling, partial curve].
For COc1ccc(Cl)cc1NC(=O)CSc1nnc2[nH]c(=O)cc(C)n12, the AC50 was 39.8 µM [falling, single point].
With COC(=O)c1cc(S(=O)(=O)N2CCN(c3cc(Cl)ccc3C)CC2)c[nH]1 the AC50 was 20 µM [falling, single point].
For COc1cc2c(=O)c(C(=O)c3ccc(F)cc3)cn(Cc3cccc(F)c3)c2cc1OC, the AC50 was 20 µM [falling, partial curve].
For O=C(CN1CCN(Cc2ccc(F)cc2Cl)C1=O)NCCc1ccc(Cl)cc1, the AC50 was 15.8 µM [falling, single point].
In the case of O=C1CN(C(=O)c2ccc(S(=O)(=O)N3CCCC3)cc2)C(c2ccccc2)c2cc(Cl)ccc2N1 (configuration not stated), the AC50 was 6.31 µM [falling, partial curve].
For Cc1ccc(C(=O)c2cn(CC(=O)NCc3ccccc3)c3nc(C)ccc3c2=O)cc1, the AC50 was 0.00501 µM [falling, full curve, poor fit].
For COc1ccc(CCN(C)CCCOc2ccc(S(=O)(=O)c3[nH]c4ccccc4c3C(C)C)cc2)cc1OC, the AC50 was 39.8 µM [falling, partial curve, poor fit].
For Cc1cc(C)n(CC(=O)Nc2cc(F)ccc2F)c(=O)c1C#N, the AC50 was 6.31 µM [falling, partial curve].
With Cc1ccc(O)c(Nc2nc3ccccc3c3nncn23)c1 the AC50 was 10 µM [rising, partial curve].
In the case of COc1cccc(C(=O)Nc2ccc3nc4n(c(=O)c3c2)CCCCC4)c1, the AC50 was 25.1 µM [falling, single point].
In the case of CCOc1ccc(NC(=O)Cn2c(=O)cc(C)c3c(C)nn(-c4cccc(Cl)c4C)c32)cc1, the AC50 was 0.0501 µM [rising, full curve, poor fit].
For CCOc1ccc(C(=O)N2CCN(CCc3ccccn3)CC2)cc1, the AC50 was 5.01 µM [falling, partial curve].
For O=C(c1noc2c1CCCC2)N1CCN(Cc2ccccc2)CC1, the AC50 was 10 µM [falling, partial curve].
In the case of CCOc1ccc(Nc2nc(C)c(NC(=O)c3cccc(OC)c3)c(Nc3ccc(OCC)cc3)n2)cc1, the AC50 was 15.8 µM [falling, partial curve].
For O=C(c1ccc2c(c1)OCO2)N1CCN(c2ccccc2)CC1, the AC50 was 10 µM [falling, partial curve].
In the case of CCOC(=O)C1=C(CN(CC)Cc2ccccc2)NC(=O)NC1c1ccc(OC(C)C)cc1 (configuration not stated), the AC50 was 25.1 µM [falling, partial curve].
For COc1ccccc1CNC(=O)c1ccc(N2CCCC2)c(NC(=O)NCc2ccc(F)cc2)c1, the AC50 was 100 nM [rising, full curve] [measured here: IkB-luc green channel].
For CCCCSCCCNC(=O)C1CCN(Cc2nc(-c3cccc(Br)c3)oc2C)CC1, the AC50 was 20 µM [falling, partial curve].
In the case of O=C(Cn1ncc2c3ccccc3n(Cc3ccccc3F)c2c1=O)N1CCCCC1, the AC50 was 15.8 µM [falling, single point].
For CCOc1ccc(CCNC(=O)c2[nH]c3cc(OC)ccc3c2Sc2ccccc2)cc1OCC, the AC50 was 25.1 µM [falling, single point].
In the case of CC(=O)c1cc2c(cc1NC(=O)c1cnn(-c3ccc(C)cc3)c1-n1cccc1)OCO2, the AC50 was 0.794 µM [rising, full curve, poor fit].
For CC(=O)Oc1ccc2occ(C(=O)c3cccs3)c2c1, the AC50 was 25.1 µM [falling, single point].
For COc1ccc(N2CCN(c3ccc(-c4nc(-c5cccc(C)c5)no4)cc3[N+](=O)[O-])CC2)cc1, the AC50 was 3.16 µM [rising, single point].
For O=C(NCCC1=CCCCC1)c1ccc2c(c1)N(Cc1cccc(Cl)c1)C(=O)c1ccccc1S2(=O)=O, the AC50 was 1 µM [rising, full curve].
With Cc1cccc2c1-c1sc(C(=O)N3CCN(c4cccc(Cl)c4)CC3)cc1CO2 the AC50 was 20 µM [falling, single point].
In the case of O=C(Cn1cnc2c(cnn2-c2ccc(F)cc2)c1=O)N1CCCc2ccccc21, the AC50 was 31.6 µM [falling, partial curve].
For O=C(CN1C(=O)C2(SCC(=O)N2c2ccc(F)c(F)c2)c2ccccc21)Nc1ccccc1F (configuration not stated), the AC50 was 31.6 µM [falling, single point].
In the case of CCOC(=O)c1ccc(N2C(=O)c3n[nH]c(-c4ccco4)c3C2c2ccc(F)cc2)cc1 (configuration not stated), the AC50 was 20 µM [falling, partial curve].
With O=C(CSc1nccn1Cc1ccc(Cl)cc1)NCc1ccccc1 the AC50 was 0.794 µM [falling, full curve].
For Cc1ccc(C)c(C(=O)COC(=O)CCCC(=O)Nc2cc(C(F)(F)F)ccc2Cl)c1, the AC50 was 25.1 µM [falling, partial curve].
For Cc1cccc(CC(=O)NCCc2csc(-c3ccc(C(F)(F)F)cc3)n2)c1, the AC50 was 39.8 µM [falling, single point].
In the case of O=C(Nc1ccccc1N1CCN(c2ccc(F)cc2)CC1)C1CCCCC1, the AC50 was 3.16 µM [falling, partial curve].
For O=C(c1ccco1)N1CCN(C(c2ccccc2Cl)c2nnnn2Cc2cccs2)CC1 (configuration not stated), the AC50 was 7.94 µM [falling, partial curve].
In the case of Cc1cc2nc(-c3cccc(NC(=O)COc4ccc(Cl)c(C)c4)c3)oc2cc1C, the AC50 was 0.158 µM [rising, full curve].
In the case of O=C(NCc1ccccc1)C1CCN(S(=O)(=O)c2ccc3[nH]c(=O)ccc3c2)CC1, the AC50 was 2 µM [rising, partial curve, poor fit].
For Cc1ccc(Cl)cc1-n1ncc2c(N3CCC(C)CC3)ncnc21, the AC50 was 39.8 µM [falling, single point].
In the case of Cc1ccc(CNC(=O)CN2CCN(Cc3ccc(F)cc3)C2=O)cc1, the AC50 was 0.0794 µM [falling, full curve].
In the case of Cc1ccc(Cc2nc3ccccc3nc2SCC(=O)N2CCCCC2C)cc1 (configuration not stated), the AC50 was 39.8 µM [falling, partial curve].
For Oc1ccc(NCc2ccc(OCc3ccccc3Cl)cc2)cc1, the AC50 was 20 µM [falling, partial curve].
For COC(=O)c1cccc(NC(=O)Nc2cc(C(=O)NCc3cccc(F)c3)ccc2N2CCCC2)c1, the AC50 was 5.01 µM [falling, partial curve].
For CC(=O)N1CCc2cc(Br)cc(S(=O)(=O)N3CCN(c4cccc(C)c4)C(C)C3)c21 (configuration not stated), the AC50 was 7.94 µM [falling, full curve].
For COc1cc(C2c3c(n[nH]c3C)C(=O)N2c2ccc(Br)cc2)ccc1O (configuration not stated), the AC50 was 6.31 µM [falling, partial curve].
With Cc1nn(C(C)C(=O)NC2CCC(C)CC2)c(=O)c2cc3sccc3n12 (configuration not stated) the AC50 was 31.6 µM [falling, partial curve].
In the case of COc1ccc(CCN2CCC(CNC(=O)c3cnn(-c4ccccc4)c3C3CCN(C(=O)OC(C)(C)C)CC3)CC2)cc1, the AC50 was 15.8 µM [falling, partial curve].
With CN(C)c1ccc(CNC(=O)CCCn2ccc3cc(S(=O)(=O)N4CCCC4)ccc32)cc1 the AC50 was 10 µM [falling, partial curve].
